# Reference: paper PMC9747586
# Results are given in words; binding and its absence hold for the method and conditions named. In cells and extracts the contact can be indirect. Some results given as binding are weak or reduced against the parent protein; the word gives no strength. Where a sequence is shown, tags or fusion partners need not be part of it.
# T1: V5-tagged IFNLR1-WT (UniProt Q8IU57)
# T1 sequence: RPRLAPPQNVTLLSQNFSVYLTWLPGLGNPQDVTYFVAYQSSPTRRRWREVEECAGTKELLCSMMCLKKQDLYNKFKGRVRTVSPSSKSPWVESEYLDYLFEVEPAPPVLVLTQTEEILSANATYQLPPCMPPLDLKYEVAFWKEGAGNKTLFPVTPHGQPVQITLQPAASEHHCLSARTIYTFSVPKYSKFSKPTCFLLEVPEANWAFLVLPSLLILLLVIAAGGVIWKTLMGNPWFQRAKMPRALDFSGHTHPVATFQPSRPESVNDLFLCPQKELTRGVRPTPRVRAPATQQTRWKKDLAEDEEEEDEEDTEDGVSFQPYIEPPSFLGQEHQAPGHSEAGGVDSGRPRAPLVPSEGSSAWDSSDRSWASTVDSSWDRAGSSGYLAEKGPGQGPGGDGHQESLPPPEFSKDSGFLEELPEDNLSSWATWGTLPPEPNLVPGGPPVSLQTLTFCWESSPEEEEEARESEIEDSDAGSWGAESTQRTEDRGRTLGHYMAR
# B1: FLAG-tagged FBXO45 (protein, UniProt P0C2W1 1-286)
# chain: MAAPAPGAGAASGGAGCSGGGAGAGAGSGSGAAGAGGRLPSRVLELVFSYLELSELRSCALVCKHWYRCLHGDENSEVWRSLCARSLAEEALRTDILCNLPSYKAKIRAFQHAFSTNDCSRNVYIKKNGFTLHRNPIAQSTDGARTKIGFSEGRHAWEVWWEGPLGTVAVIGIATKRAPMQCQGYVALLGSDDQSWGWNLVDNNLLHNGEVNGSFPQCNNAPKYQIGERIRVILDMEDKTLAFERGYEFLGVAFRGLPKVCLYPAVSAVYGNTEVTLVYLGKPLDG
# Target: T1, V5-tagged IFNLR1-WT
# Assay: co-IP; HEK-293T cotransfected 48 h, MG-132 (20 uM) and leupeptin (100 uM) 2 h, lysate precipitated with V5 antibody and protein A/G magnetic beads, FLAG immunoblot
binder,measurement,value
B1,binding,binds
